{
  "source": "PubChem BioAssay AID504834",
  "about": "(National Center for Advancing Translational Sciences (NCATS), 2011)",
  "note": "Hit rate of the full screen: of about 320,000 compounds, about 22,000 (6.9%) were called active. This list was built around the results that the source calls inconclusive (neither active nor inactive); the mix of calls is not that of the screen. The call rests on the fitted dose curve; in most records, active means well fitted inhibition curve with a large enough effect; inconclusive means small, poorly fitted or top-dose-only effect, or another doubt; inactive means no such curve, though single readings can be large or run the other way. Potencies of inconclusive entries are doubtful fits and often do not repeat. Potency means the concentration at half of the fitted maximal effect.",
  "data": [
    {"assay": "Primary qHTS for delayed death inhibitors of the malarial parasite plastid, 96 hour incubation", "settings": "P. falciparum luciferase reporter growth; series mostly up to 28.7 µM", "method_in_brief": "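Two-generation exposure (96 h) targets delayed-death phenotype. Reporter parasites carrying integrated firefly luciferase, in red cells at 2% hematocrit and 0.05% parasitemia final, kept at 37 C, 5% CO2; luminescence loss indicates inhibition.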", "values": [
      {"smiles": "O=[N+]([O-])c1ccc(CN2CCC(Cc3ccccc3)CC2)cc1", "Potency": "inconclusive: 20.8 µM [inhibitor, partial curve, poor fit]"},
      {"smiles": "CCOc1ccc(S(=O)(=O)Nc2cccc(C(=O)NCCCn3ccnc3)c2)cc1", "Potency": "inconclusive: 10.4 µM [inhibitor, single point]"},
      {"smiles": "COc1ccc(S(=O)(=O)Cc2ccc(C(=O)N3CCN(c4cc(Cl)ccc4C)CC3)o2)cc1", "Potency": "active: 13.1 µM"},
      {"smiles": "Cc1ccc(NC(=O)C2CCCN(c3ncccn3)C2)cc1C", "note": "(stereo not given)", "Potency": "inconclusive: 18.5 µM [inhibitor, single point]"},
      {"smiles": "CCN(CC)C(=O)Cn1c(=O)n(CC(=O)N2CCCCC2)c(=O)c2sccc21", "Potency": "inconclusive: 18.5 µM [inhibitor, partial curve, poor fit]"},
      {"smiles": "CCCCc1cc(=O)oc2cc(C)cc(OCC(=O)NCCN3CCOCC3)c12", "Potency": "inconclusive: 11.7 µM [inhibitor, partial curve, poor fit]"},
      {"smiles": "N=C1C(c2nc3ccccc3[nH]2)=C(O)CN1c1ccc(F)cc1", "Potency": "inactive"},
      {"smiles": "CCOC(=O)c1c(NC(=O)Cn2cnc3sc(C)c(-c4ccccc4)c3c2=O)sc(C)c1C", "Potency": "inconclusive: 9.28 µM [inhibitor, single point]"},
      {"smiles": "Cc1ccc(-c2cc(C(=O)N(C)CC(=O)Nc3ccccc3Br)c3ccccc3n2)o1", "Potency": "inconclusive: 0.294 µM [inhibitor, partial curve, poor fit]"},
      {"smiles": "Cc1ccc2c(Cl)cc(Cl)c(OCC(=O)OCC(=O)Nc3ccc(C#N)cc3)c2n1", "Potency": "inactive"},
      {"smiles": "O=c1c2sccc2n(Cc2cccc(F)c2)c(=O)n1-c1ccc(F)cc1", "Potency": "inconclusive: 7.38 µM [inhibitor, partial curve, poor fit]"},
      {"smiles": "CCOC(=O)CN1C(=O)/C(=C/c2ccc(Cl)cc2)Oc2ccccc21", "Potency": "inconclusive: 11.7 µM [inhibitor, partial curve, poor fit]"},
      {"smiles": "CCOC(=O)C(=O)NCC(c1cccs1)S(=O)(=O)c1ccc(F)cc1", "note": "(stereo not given)", "Potency": "active: 11.7 µM"},
      {"smiles": "CN(C)S(=O)(=O)c1ccc(Cl)c(C(=O)Nc2cccc([N+](=O)[O-])c2)c1", "Potency": "inactive"},
      {"smiles": "CCCc1nnc(NC(=O)C2CCN(C(=O)C3CC(=O)N(c4ccc(C)cc4)C3)CC2)s1", "note": "(stereo not given)", "Potency": "inactive"},
      {"smiles": "CC(C)CN(C(=O)CSc1ncnc2sccc12)C1CCS(=O)(=O)C1", "note": "(stereo not given)", "Potency": "inconclusive: 18.5 µM [inhibitor, single point]"},
      {"smiles": "Cc1cc(C(=O)Nc2ccccc2C)c2ccccc2n1", "Potency": "inactive"},
      {"smiles": "COc1cc(/C=N/NC(=O)COc2cccc(F)c2)ccc1OS(=O)(=O)c1ccc(C)cc1", "Potency": "active: 8.28 µM"},
      {"smiles": "CC(=O)c1ccc(NC(=S)NNC(=O)NC2CCCCC2)cc1", "Potency": "inactive"},
      {"smiles": "Cc1ccnc(NC(=S)NC(=O)c2ccco2)c1", "Potency": "inactive"},
      {"smiles": "Nc1nc(N2CCOCC2)nc(N(c2ccccc2)c2ccccc2)n1", "Potency": "inconclusive: 14.7 µM [inhibitor, single point]"},
      {"smiles": "O=C(Cn1cc([N+](=O)[O-])cn1)N1CCN(c2ccccc2)CC1", "Potency": "inconclusive: 18.5 µM [inhibitor, single point]"},
      {"smiles": "COc1ccc(C(=O)NN=C2CCCC2)c(OC)c1", "Potency": "inconclusive: 13.1 µM [inhibitor, single point]"},
      {"smiles": "Cc1nn(C)c(C(=O)NCc2ccc(Cl)cc2)c1Cl", "Potency": "inactive"},
      {"smiles": "Cc1cc(NC(=O)CSc2nc3c(c(=O)n(C)c(=O)n3C)n2C(C)C)no1", "Potency": "inconclusive: 11.7 µM [inhibitor, single point]"},
      {"smiles": "Cn1c(=O)n(CCN2CCOCC2)c(=O)c2c1nc1n2CCCN1c1ccccc1", "Potency": "inconclusive: 2.94 µM [inhibitor, single point]"},
      {"smiles": "O=c1c2ccccc2nc(/C=C/c2ccc(F)cc2)n1-c1ccccc1O", "Potency": "inconclusive: 2.62 µM [inhibitor, full curve]"},
      {"smiles": "O=C(CCN1CCOCC1)N1CCc2c([nH]c3ccccc23)C1c1cccc(Cl)c1", "note": "(stereo not given)", "Potency": "inconclusive: 3.7 µM [inhibitor, partial curve]"},
      {"smiles": "COCCCN(Cc1cccs1)S(=O)(=O)c1csc(C(N)=O)c1", "Potency": "inconclusive: 18.5 µM [inhibitor, single point]"},
      {"smiles": "CC(C)Cn1c(S(=O)(=O)O)nc2ccccc21", "Potency": "inactive"},
      {"smiles": "Cc1ccc(C(=O)OCCOc2cccc(Cl)c2)cc1S(=O)(=O)N1CCOCC1", "Potency": "inconclusive: 14.7 µM [inhibitor, single point]"},
      {"smiles": "Cc1ccccc1/C=N/n1c(-c2ccccn2)n[nH]c1=S", "Potency": "inconclusive: 0.037 µM [inhibitor, full curve, poor fit]"},
      {"smiles": "NNC(=O)CNC(c1ccccc1)c1cc(Br)ccc1NC(=O)CCN1CCOCC1", "note": "(stereo not given)", "Potency": "active: 9.28 µM"},
      {"smiles": "CCOC(=O)c1c(NC(=O)c2c(Br)cnn2C)c(C#N)nn1-c1ccccc1", "Potency": "inconclusive: 18.5 µM [inhibitor, partial curve, poor fit]"},
      {"smiles": "CCCCN(Cc1ccccc1)C(=O)C1CCC(=O)N(CCc2ccccn2)C1", "note": "(stereo not given)", "Potency": "inconclusive: 18.5 µM [inhibitor, single point]"},
      {"smiles": "CN(C)CCNc1cc(-c2ccncc2)nc2ccccc12", "Potency": "active: 3.29 µM"},
      {"smiles": "O=C(NCCC1=CCCCC1)C1CCN(S(=O)(=O)c2cnc[nH]2)CC1", "Potency": "inconclusive: 1.31 µM [inhibitor, partial curve, poor fit]"},
      {"smiles": "CC(=O)Nc1ccc(NC(=O)C2CCN(C(=O)c3cccs3)CC2)cc1", "Potency": "inactive"},
      {"smiles": "COc1ccc(OC)c(S(=O)(=O)N2CCC(C(=O)Nc3cc(C)ccc3C)CC2)c1", "Potency": "active: 13.1 µM"},
      {"smiles": "O=C(CN1C(=O)NC2(CCCCC2)C1=O)Nc1ccc2[nH]c(=O)[nH]c2c1", "Potency": "inactive"},
      {"smiles": "CC1CCCN(C(C(=O)Nc2ccc(C(C)C)cc2)c2ccc3c(c2)OCO3)C1", "note": "(stereo not given)", "Potency": "inactive"},
      {"smiles": "O=C(CSc1ncn(-c2ccccc2)n1)Nc1ccc2c(c1)OCCO2", "Potency": "inactive"},
      {"smiles": "CC(Oc1ccccc1)C(=O)N/N=C/c1ccccn1", "note": "(stereo not given)", "Potency": "inconclusive: 18.5 µM [inhibitor, single point]"},
      {"smiles": "CC(=O)N1c2ccc(S(=O)(=O)NCCC(=O)NCCc3ccc(Cl)cc3)cc2CC1C", "note": "(stereo not given)", "Potency": "inactive"},
      {"smiles": "CC(=O)Nc1cccc(OC(=O)N2CCOCC2)c1", "Potency": "inconclusive: 18.5 µM [inhibitor, single point]"}
    ]}
  ]
}
